The series is described as follows: Iodine Concentration, ISE measured in subject treatment systems. As to conditions: for Iodine Concentration, Iodine Feeder Unit Sample, Average / Iodine Concentration, Iodine Feeder Unit Sample: before carbon filter units; for Iodine Concentration, Iodine Feeder Unit Sample / Iodine Concentration, Discharge Unit Sample: 90 ml water samples No. 1-3; for Iodine Concentration, Discharge Unit Sample, Average / Iodine Concentration, Discharge Unit Sample: point of discharge.

Setting [1] is: subject treatment system A, after 6 months of sustained use.
Where [2] appears, read: subject treatment system B, after 3 years of sustained use.

Where “and” joins values, the source holds several entries; their conditions need not be identical. Identical values can stand only once.

In the case of `II`, under setting [1], the “Iodine Concentration, Iodine Feeder Unit Sample, Average” value was 18.2 ppm; the “Iodine Concentration, Iodine Feeder Unit Sample” value is 16.7 ppm and 19.8 ppm and 18.1 ppm; the “Iodine Concentration, Discharge Unit Sample, Average” value was 0.0 ppm; the “Iodine Concentration, Discharge Unit Sample” value stood at 0.0 ppm. Besides, under setting [2], the “Iodine Concentration, Iodine Feeder Unit Sample, Average” value was found to be 15.6 ppm; the “Iodine Concentration, Iodine Feeder Unit Sample” value was 15.7 ppm and 16.9 ppm and 14.1 ppm; the “Iodine Concentration, Discharge Unit Sample, Average” value was 0.0 ppm; the “Iodine Concentration, Discharge Unit Sample” value is reported as 0.0 ppm. In addition, the “residual iodine in treated-discharge water” value (subject treatment systems A and B after periods of sustained use) was “below ISE-detectable levels”.

For the origin of these results see patent publication US20050109704A1, “Potable water delivery system with disinfection and residual discharge unit and method” (Pure H2O Bio-Technologies, Inc., priority 2003, published 2005).
